# Source: the supplement of paper PMC10849652
# Sequences of proteins named here, by UniProt entry; tags and fusion partners are left off. A change or cut given only in a name is not applied to a line headed by its entry.
# UniProt P08514, whole entry, looked up: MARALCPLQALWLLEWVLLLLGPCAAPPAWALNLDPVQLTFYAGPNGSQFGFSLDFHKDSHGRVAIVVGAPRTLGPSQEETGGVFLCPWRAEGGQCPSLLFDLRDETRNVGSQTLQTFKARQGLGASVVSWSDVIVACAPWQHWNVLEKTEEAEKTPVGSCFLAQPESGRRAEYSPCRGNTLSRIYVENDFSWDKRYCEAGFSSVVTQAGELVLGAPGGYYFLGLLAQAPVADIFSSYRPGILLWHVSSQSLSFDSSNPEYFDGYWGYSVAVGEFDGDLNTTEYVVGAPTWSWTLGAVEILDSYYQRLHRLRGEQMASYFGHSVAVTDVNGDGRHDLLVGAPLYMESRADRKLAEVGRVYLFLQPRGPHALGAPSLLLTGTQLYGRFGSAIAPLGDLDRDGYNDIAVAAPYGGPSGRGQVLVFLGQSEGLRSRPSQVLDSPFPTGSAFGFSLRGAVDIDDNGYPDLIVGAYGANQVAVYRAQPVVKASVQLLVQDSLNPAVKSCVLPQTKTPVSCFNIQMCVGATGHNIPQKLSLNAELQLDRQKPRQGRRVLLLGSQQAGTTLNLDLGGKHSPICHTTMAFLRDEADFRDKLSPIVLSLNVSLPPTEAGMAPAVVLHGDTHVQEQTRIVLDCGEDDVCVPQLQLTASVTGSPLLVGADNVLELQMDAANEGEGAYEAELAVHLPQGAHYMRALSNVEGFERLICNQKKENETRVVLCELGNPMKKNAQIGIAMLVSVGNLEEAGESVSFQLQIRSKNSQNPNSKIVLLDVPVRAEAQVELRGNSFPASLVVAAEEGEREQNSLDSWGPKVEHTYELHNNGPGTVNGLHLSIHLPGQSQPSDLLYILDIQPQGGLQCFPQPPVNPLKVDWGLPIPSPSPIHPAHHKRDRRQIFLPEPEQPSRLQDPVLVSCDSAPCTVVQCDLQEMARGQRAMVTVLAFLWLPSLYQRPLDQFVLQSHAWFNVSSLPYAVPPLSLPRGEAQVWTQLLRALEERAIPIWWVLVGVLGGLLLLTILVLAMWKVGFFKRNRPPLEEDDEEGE
# UniProt P38570: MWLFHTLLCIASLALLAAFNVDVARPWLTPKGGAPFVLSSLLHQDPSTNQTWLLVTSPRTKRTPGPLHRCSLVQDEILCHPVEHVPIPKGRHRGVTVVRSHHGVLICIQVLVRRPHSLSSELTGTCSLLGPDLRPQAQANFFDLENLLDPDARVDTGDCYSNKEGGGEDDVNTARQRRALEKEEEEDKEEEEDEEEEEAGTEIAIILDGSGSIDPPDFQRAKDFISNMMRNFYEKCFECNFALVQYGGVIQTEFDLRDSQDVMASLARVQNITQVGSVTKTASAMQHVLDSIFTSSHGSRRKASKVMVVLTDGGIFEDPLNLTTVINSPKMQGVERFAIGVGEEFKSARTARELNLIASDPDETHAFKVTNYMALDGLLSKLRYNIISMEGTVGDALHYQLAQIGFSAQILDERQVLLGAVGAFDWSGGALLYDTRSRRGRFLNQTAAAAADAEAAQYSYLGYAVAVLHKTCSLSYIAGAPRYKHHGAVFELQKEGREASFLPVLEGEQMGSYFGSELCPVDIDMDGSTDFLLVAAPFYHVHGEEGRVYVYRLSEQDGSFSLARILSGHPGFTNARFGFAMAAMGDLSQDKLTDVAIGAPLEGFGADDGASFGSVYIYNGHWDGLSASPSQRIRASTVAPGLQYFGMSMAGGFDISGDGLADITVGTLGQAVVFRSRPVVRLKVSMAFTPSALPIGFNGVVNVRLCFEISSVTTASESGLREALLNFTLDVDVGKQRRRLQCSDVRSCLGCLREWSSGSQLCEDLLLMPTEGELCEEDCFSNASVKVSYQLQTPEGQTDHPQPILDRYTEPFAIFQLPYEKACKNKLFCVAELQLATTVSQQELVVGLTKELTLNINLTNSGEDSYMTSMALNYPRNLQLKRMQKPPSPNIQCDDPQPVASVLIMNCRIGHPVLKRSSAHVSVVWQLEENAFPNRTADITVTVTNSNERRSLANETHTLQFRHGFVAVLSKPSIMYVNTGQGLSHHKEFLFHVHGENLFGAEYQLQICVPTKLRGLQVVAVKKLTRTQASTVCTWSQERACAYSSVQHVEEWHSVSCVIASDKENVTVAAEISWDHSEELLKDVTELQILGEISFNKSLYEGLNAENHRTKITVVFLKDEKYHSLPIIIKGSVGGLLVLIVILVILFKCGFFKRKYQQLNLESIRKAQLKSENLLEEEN
# UniProt P51617, whole entry, looked up: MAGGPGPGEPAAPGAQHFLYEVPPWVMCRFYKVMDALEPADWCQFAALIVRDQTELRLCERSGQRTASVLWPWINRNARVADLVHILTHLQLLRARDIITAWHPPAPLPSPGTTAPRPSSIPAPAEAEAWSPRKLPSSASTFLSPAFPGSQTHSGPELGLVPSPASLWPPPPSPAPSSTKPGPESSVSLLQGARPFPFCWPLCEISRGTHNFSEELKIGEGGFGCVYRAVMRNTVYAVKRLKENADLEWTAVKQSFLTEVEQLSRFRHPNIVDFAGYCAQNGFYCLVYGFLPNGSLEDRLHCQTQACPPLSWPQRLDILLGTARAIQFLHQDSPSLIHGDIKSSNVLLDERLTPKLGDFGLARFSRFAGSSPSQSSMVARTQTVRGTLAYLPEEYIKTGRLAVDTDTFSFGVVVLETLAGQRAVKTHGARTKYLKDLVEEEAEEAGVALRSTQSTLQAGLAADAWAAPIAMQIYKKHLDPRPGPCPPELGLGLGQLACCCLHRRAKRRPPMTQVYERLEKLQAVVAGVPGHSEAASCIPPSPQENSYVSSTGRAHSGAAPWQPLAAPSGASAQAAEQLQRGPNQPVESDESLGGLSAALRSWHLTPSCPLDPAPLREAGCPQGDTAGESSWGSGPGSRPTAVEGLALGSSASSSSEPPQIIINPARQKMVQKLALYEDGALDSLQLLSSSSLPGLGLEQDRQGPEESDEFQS
# UniProt Q9NQS7, whole entry, looked up: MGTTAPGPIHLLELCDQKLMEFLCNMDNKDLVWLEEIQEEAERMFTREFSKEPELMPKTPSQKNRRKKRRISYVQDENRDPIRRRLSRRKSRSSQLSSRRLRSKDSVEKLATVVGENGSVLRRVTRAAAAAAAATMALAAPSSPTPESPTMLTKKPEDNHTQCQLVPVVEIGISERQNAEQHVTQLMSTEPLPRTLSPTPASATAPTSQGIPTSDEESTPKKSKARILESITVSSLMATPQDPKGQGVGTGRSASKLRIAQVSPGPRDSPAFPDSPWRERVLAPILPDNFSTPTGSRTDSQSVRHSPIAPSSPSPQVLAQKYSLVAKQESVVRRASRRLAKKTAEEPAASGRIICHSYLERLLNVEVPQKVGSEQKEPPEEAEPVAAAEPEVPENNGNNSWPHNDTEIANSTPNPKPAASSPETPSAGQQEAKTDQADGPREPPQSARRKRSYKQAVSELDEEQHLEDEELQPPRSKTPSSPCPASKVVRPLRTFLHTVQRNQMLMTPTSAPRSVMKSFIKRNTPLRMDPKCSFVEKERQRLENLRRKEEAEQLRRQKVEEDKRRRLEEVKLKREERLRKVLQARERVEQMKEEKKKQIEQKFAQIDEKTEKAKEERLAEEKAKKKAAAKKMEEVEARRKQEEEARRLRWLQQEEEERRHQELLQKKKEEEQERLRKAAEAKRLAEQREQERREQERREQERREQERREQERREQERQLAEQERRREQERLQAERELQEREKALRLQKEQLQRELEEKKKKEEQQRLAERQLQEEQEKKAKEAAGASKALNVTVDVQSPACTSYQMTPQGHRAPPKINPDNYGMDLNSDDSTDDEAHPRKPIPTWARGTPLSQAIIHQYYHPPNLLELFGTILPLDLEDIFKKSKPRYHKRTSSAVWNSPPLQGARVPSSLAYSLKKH
# UniProt O14732: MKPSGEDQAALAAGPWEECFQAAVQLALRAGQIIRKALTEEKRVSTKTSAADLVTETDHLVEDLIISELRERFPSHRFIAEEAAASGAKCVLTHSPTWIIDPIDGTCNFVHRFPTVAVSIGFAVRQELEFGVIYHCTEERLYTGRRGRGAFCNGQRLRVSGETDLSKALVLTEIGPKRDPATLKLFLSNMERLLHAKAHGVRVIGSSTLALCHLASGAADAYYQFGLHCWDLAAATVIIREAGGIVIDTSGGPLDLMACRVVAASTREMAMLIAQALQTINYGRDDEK
# UniProt Q96A47: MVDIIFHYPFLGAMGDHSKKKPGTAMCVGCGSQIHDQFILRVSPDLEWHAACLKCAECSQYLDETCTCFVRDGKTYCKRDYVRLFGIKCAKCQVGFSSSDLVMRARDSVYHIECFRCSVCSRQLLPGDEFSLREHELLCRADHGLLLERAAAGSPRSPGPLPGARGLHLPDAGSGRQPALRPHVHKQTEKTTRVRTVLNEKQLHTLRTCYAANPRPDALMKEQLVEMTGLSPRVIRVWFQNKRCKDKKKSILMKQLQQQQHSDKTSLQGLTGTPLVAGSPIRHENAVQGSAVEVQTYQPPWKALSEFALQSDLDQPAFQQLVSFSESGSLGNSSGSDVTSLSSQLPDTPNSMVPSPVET
# UniProt P01876, whole entry, looked up: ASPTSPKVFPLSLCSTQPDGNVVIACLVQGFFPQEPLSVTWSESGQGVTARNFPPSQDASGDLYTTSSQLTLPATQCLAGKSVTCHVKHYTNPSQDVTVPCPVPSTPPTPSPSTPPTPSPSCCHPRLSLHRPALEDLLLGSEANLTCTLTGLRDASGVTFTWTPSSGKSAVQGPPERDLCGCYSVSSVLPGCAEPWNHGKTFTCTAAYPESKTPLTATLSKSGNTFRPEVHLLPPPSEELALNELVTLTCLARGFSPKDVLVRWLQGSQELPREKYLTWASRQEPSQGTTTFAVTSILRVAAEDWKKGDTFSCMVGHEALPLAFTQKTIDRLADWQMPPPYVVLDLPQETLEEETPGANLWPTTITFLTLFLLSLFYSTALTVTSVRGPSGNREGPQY
# UniProt Q6P9B9, whole entry, looked up: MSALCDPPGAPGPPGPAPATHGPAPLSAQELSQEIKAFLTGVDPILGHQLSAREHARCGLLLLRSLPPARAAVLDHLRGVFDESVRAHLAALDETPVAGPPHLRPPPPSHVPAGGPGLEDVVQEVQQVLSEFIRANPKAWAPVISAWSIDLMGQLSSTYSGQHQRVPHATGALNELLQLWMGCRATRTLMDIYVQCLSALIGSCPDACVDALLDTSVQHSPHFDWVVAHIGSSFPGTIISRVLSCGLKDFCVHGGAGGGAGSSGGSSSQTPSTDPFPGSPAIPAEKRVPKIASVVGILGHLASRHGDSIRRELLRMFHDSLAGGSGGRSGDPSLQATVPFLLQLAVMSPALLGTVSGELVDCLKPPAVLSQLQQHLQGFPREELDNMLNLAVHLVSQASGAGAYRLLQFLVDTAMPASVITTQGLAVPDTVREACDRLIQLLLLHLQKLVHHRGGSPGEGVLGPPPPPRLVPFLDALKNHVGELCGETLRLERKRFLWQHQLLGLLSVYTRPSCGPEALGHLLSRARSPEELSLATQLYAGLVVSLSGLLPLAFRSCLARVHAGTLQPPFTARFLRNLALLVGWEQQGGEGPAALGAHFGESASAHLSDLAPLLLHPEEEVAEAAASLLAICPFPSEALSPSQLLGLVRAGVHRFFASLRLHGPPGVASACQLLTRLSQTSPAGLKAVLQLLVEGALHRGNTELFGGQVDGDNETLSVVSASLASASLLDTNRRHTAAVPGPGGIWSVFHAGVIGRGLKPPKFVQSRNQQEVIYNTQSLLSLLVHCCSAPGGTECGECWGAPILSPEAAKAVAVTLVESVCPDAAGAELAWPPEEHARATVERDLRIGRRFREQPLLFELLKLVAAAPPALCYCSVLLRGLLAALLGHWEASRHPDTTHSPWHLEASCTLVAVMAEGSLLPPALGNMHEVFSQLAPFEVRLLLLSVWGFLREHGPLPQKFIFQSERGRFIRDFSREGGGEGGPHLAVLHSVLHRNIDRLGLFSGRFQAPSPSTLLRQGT
# UniProt Q96G21: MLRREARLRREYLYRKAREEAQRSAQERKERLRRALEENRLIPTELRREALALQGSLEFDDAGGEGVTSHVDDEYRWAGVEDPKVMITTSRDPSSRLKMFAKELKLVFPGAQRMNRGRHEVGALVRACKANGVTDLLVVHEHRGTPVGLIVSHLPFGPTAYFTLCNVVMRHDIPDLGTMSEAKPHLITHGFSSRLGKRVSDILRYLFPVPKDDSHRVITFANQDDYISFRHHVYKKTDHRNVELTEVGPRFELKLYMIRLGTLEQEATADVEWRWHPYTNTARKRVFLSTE
# UniProt Q8IY31, whole entry, looked up: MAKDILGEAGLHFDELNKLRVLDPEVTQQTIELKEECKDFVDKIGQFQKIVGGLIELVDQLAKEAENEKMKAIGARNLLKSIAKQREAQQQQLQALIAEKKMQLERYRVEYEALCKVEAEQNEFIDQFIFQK
# The other results are listed elsewhere or left out.
# Legend:
# Test in all cases: log2 fold change, soluble protein after heating vs DMSO (PISA); higher = thermal stabilisation; K562 cells, 10 uM, 30 min; active = over 0.2 and 3.5 SD of the protein, either way, in both replicates (recomputed)
# [1] = compound: COC1=CC=C(C=C1)CN2C=CC3=C2C=C(C=C3)C(=O)NO
# Procedure, shortened: (§1)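 K562 cells at 2×10^6 cells/mL were exposed to 10 μM compound for 30 min, then aliquots were heated for 3 min across 48°C-58°C, pooled, and extracted in PBS containing 0.5% NP-40 at 4°C. The supernatant after 21,000xg for 90 min was taken as soluble protein and measured by TMTpro 16plex LC-MS/MS with channel sums equalised. Thermal stability is reported relative to control samples, with values from duplicates. Fold changes are given on a log2 scale.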
# filanesib = compound: CON(C)C(=O)N1N=C(c2cc(F)ccc2F)S[C@@]1(CCCN)c1ccccc1 [filanesib]
# Procedure, shortened: as §1
# zotarolimus = compound: CO[C@H]1C[C@@H]2CC[C@@H](C)[C@@](O)(O2)C(=O)C(=O)N2CCCC[C@H]2C(=O)O[C@H]([C@H](C)C[C@@H]2CC[C@H](n3cnnn3)[C@H](OC)C2)CC(=O)[C@H](C)/C=C(\C)[C@@H](O)[C@@H](OC)C(=O)[C@H](C)C[C@H](C)/C=C/C=C/C=C/1C [zotarolimus]
# Procedure, shortened: as §1
# idasanutlin = compound: COc1cc(C(=O)O)ccc1NC(=O)[C@@H]1N[C@@H](CC(C)(C)C)[C@](C#N)(c2ccc(Cl)cc2F)[C@H]1c1cccc(Cl)c1F [idasanutlin]
# Procedure, shortened: as §1
# [2] = compound: COc1cc2nc(-c3cc(F)ccc3O)nc(N[C@@H]3CNC[C@H]3C(C)(C)O)c2cc1OC
# Procedure, shortened: as §1
# gefitinib = compound: COc1cc2ncnc(Nc3ccc(F)c(Cl)c3)c2cc1OCCCN1CCOCC1 [gefitinib]
# Procedure, shortened: as §1
# lapatinib = compound: CS(=O)(=O)CCNCc1ccc(-c2ccc3ncnc(Nc4ccc(OCc5cccc(F)c5)c(Cl)c4)c3c2)o1 [lapatinib]
# Procedure, shortened: as §1
# pictilisib = compound: CS(=O)(=O)N1CCN(Cc2cc3nc(-c4cccc5[nH]ncc45)nc(N4CCOCC4)c3s2)CC1 [pictilisib]
# Procedure, shortened: as §1
# [3] = compound: CS(=O)(=O)c1ccc(-c2cnc(N)c(C(=O)Nc3ccccc3)n2)cc1
# Procedure, shortened: as §1
# crizotinib = compound: C[C@@H](Oc1cc(-c2cnn(C3CCNCC3)c2)cnc1N)c1c(Cl)ccc(F)c1Cl [crizotinib]
# Procedure, shortened: as §1
# [4] = compound: C[C@@H]1COCCN1C2=NC(=NC(=C2)C3(CC3)S(=O)(=O)C)C4=C5C=CNC5=CC=C4
# Procedure, shortened: as §1
# [5] = compound: C[C@H](C1=CC=C(C=C1)C(=O)NC2=C3C=CNC3=NC=C2)N
# Procedure, shortened: as §1
# gandotinib = compound: Cc1cc(Nc2cc(CN3CCOCC3)c3nc(C)c(Cc4ccc(Cl)cc4F)n3n2)n[nH]1 [gandotinib]
# Procedure, shortened: as §1
# [6] = compound: Cc1cc(SCc2sc(-c3ccc(C(F)(F)F)cc3)nc2C)ccc1OCC(=O)O
# Procedure, shortened: as §1
# doramapimod = compound: Cc1ccc(-n2nc(C(C)(C)C)cc2NC(=O)Nc2ccc(OCCN3CCOCC3)c3ccccc23)cc1 [doramapimod]
# Procedure, shortened: as §1
# ispinesib = compound: Cc1ccc(C(=O)N(CCCN)[C@@H](c2nc3cc(Cl)ccc3c(=O)n2Cc2ccccc2)C(C)C)cc1 [ispinesib]
# Procedure, shortened: as §1
# alisertib = compound: COc1cc(Nc2ncc3c(n2)-c2ccc(Cl)cc2C(c2c(F)cccc2OC)=NC3)ccc1C(=O)O [alisertib]
# Procedure, shortened: as §1
# [7] = compound: COc1cccc2cc(-c3nc([C@H]4CC[C@H](C(=O)O)CC4)n4ncnc(N)c34)[nH]c12
# Procedure, shortened: as §1
# tozasertib = compound: Cc1cc(Nc2cc(N3CCN(C)CC3)nc(Sc3ccc(NC(=O)C4CC4)cc3)n2)n[nH]1 [tozasertib]
# Procedure, shortened: as §1
# duvelisib = compound: C[C@H](Nc1ncnc2nc[nH]c12)c1cc2cccc(Cl)c2c(=O)n1-c1ccccc1 [duvelisib]
# Procedure, shortened: as §1
Target,log2 fold change [1],log2 fold change (filanesib),log2 fold change (zotarolimus),log2 fold change (idasanutlin),log2 fold change [2],log2 fold change (gefitinib),log2 fold change (lapatinib),log2 fold change (pictilisib),log2 fold change [3],log2 fold change (crizotinib),log2 fold change [4],log2 fold change [5],log2 fold change (gandotinib),log2 fold change [6],log2 fold change (doramapimod),log2 fold change (ispinesib),log2 fold change (alisertib),log2 fold change [7],log2 fold change (tozasertib),log2 fold change (duvelisib)
ITGA2B (UniProt P08514),inactive: 0.004,inactive: 0.086,inactive: -0.065,inactive: 0.138,inactive: 0.074,inactive: -0.086,inactive: 0.033,active: -0.589,inactive: -0.076,inactive: -0.068,inactive: -0.077,inactive: 0.045,inactive: 0.283,inactive: 0,inactive: 0.031,inactive: -0.088,–,–,–,–
ITGAE (UniProt P38570),inactive: 0.169,inactive: 0.09,inactive: -0.285,–,inactive: 0.296,inactive: -0.007,inactive: -0.164,inactive: 0.097,inactive: 0.182,inactive: -0.04,inactive: 0.063,inactive: 0.045,inactive: 0.136,–,inactive: 0.04,inactive: -0.117,inactive: -0.16,inactive: 0.149,–,–
IRAK1 (UniProt P51617),inactive: -0.06,inactive: 0.171,–,–,–,inactive: -0.027,–,inactive: -0.094,inactive: 0.248,inactive: -0.002,inactive: -0.025,–,inactive: 0.006,–,inactive: 0.205,inactive: -0.216,inactive: -0.169,inactive: -0.097,–,–
IL10RB (UniProt Q08334),inactive: -0.161,inactive: 0.299,–,inactive: -0.008,inactive: 0.048,inactive: 0.088,inactive: 0.011,inactive: 0.025,inactive: 0.004,inactive: 0.009,inactive: -0.031,–,inactive: -0.238,inactive: 0.089,inactive: -0.007,–,–,–,–,–
IGLL5 (UniProt B9A064),inactive: 0.37,inactive: 0.202,–,–,inactive: -0.046,inactive: 0.252,inactive: 0.016,inactive: -0.011,inactive: -0.213,inactive: -0.161,–,–,inactive: -0.223,–,inactive: -0.206,–,inactive: 0.017,inactive: 0.169,inactive: -0.086,–
ITPR1 (UniProt Q14643),inactive: 0.167,–,inactive: 0.146,–,–,–,–,–,–,inactive: -0.031,inactive: 0.156,inactive: 0.198,–,–,inactive: -0.009,inactive: -0.275,–,–,–,–
IL18R1 (UniProt Q13478),inactive: -0.254,inactive: -0.136,–,–,inactive: 0.199,inactive: 0.059,inactive: -0.04,inactive: 0.233,inactive: 0.088,inactive: 0.036,–,–,inactive: -0.048,inactive: -0.012,inactive: -0.166,–,inactive: 0.001,inactive: 0.167,–,inactive: 0.196
INCENP (UniProt Q9NQS7),inactive: -0.14,–,–,–,–,–,–,–,–,inactive: 0.235,–,–,–,–,inactive: -0.586,inactive: -0.187,–,–,–,–
IMPA2 (UniProt O14732),–,inactive: -0.257,inactive: -0.2,inactive: 0.048,inactive: 0.027,–,inactive: -0.053,inactive: 0.112,inactive: 0.009,–,–,inactive: 0.202,inactive: 0.026,inactive: 0.034,–,inactive: 0.054,inactive: 0.391,inactive: -0.02,inactive: 0.133,inactive: 0.066
ISL2 (UniProt Q96A47),inactive: -0.305,–,inactive: 0.118,inactive: 0.015,–,–,–,inactive: -0.086,–,inactive: 0.083,–,inactive: -0.355,inactive: -0.001,–,inactive: 0.02,–,–,–,–,–
IGHA1 (UniProt P01876),–,inactive: 0.456,inactive: -0.387,inactive: 0.261,inactive: -0.018,inactive: 0.265,inactive: 0.332,inactive: 0.264,inactive: -0.024,–,inactive: 0.327,inactive: 0.065,inactive: -0.265,inactive: -0.39,–,inactive: 1.36,inactive: 0.405,inactive: -0.192,inactive: 0.082,inactive: -0.106
INTS5 (UniProt Q6P9B9),inactive: -0.02,inactive: -0.055,–,inactive: 0.045,inactive: -0.111,inactive: -0.017,inactive: 0.13,–,inactive: 0.029,inactive: -0.013,inactive: 0.058,–,–,inactive: 0.008,inactive: 0.006,inactive: 0.025,inactive: -0.019,inactive: -0.004,–,–
IMP4 (UniProt Q96G21),–,inactive: 0.194,–,inactive: 0.079,–,–,–,inactive: 0.082,inactive: 0.042,–,–,–,inactive: 0.203,inactive: -0.203,–,inactive: -0.077,–,–,–,inactive: 0.038
IFT20 isoform 2 (UniProt Q8IY31),–,inactive: 0.059,–,–,–,inactive: 0.038,–,–,inactive: 0.088,–,–,–,–,–,–,inactive: 0.036,inactive: 0.131,inactive: -0.112,–,–
ITIH1 (UniProt P19827),–,–,–,inactive: 0.034,–,–,–,–,–,–,–,–,–,–,–,–,inactive: 0.491,inactive: 0.22,–,–

# Fetched one by one from the list above:
Target,log2 fold change [1],log2 fold change (filanesib),log2 fold change (zotarolimus),log2 fold change (idasanutlin),log2 fold change [2],log2 fold change (gefitinib),log2 fold change (lapatinib),log2 fold change (pictilisib),log2 fold change [3],log2 fold change (crizotinib),log2 fold change [4],log2 fold change [5],log2 fold change (gandotinib),log2 fold change [6],log2 fold change (doramapimod),log2 fold change (ispinesib),log2 fold change (alisertib),log2 fold change [7],log2 fold change (tozasertib),log2 fold change (duvelisib)
IMP4 (UniProt Q96G21),–,inactive: 0.194,–,inactive: 0.079,–,–,–,inactive: 0.082,inactive: 0.042,–,–,–,inactive: 0.203,inactive: -0.203,–,inactive: -0.077,–,–,–,inactive: 0.038
ITGAE (UniProt P38570),inactive: 0.169,inactive: 0.09,inactive: -0.285,–,inactive: 0.296,inactive: -0.007,inactive: -0.164,inactive: 0.097,inactive: 0.182,inactive: -0.04,inactive: 0.063,inactive: 0.045,inactive: 0.136,–,inactive: 0.04,inactive: -0.117,inactive: -0.16,inactive: 0.149,–,–
